These are yes or no findings as the source states them, for the method shown. Some entries that bind do so weakly or less than the wild type.
What was measured:
[1] = molecular target: T1, human B7H3 expressed on cell surface (human, UniProt Q5ZPR3 29-534); assay: cell avidity (Lumicks Cell Avidity Analyzer), CAR-T cells on target cells
T1 construct: whole, on cells; also called B7-H3 on LAN-1, Kelly, IMR-32 and other B7-H3 positive target cell lines
T1 sequence (looked up): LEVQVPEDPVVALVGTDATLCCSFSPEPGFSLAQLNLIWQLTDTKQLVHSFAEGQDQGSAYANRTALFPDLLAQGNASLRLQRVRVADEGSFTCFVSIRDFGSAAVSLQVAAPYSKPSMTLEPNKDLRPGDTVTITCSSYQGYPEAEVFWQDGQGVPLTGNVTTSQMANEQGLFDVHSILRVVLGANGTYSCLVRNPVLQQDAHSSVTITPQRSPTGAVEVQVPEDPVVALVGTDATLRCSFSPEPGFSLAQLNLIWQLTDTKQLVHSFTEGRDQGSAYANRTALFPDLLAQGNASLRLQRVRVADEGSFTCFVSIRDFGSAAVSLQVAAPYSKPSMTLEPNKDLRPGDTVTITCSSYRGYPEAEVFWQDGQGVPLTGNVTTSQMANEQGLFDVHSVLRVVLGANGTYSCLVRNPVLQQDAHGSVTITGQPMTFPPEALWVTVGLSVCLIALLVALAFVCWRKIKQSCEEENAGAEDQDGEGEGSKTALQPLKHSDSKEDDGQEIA

[2] = molecular target: T1, human B7H3 expressed on cell surface; assay: cell avidity (Lumicks acoustic force), CAR-T cells on target cells with a range of B7H3 densities

- binding [1]: binds
- binding [2]: binds
B1: TE9-CD8H/Tm-CD28-CD3z chimeric antigen receptor (protein, not shown: small tags and cut ends)
chain: QVQLQQSGAALVKPGTSVKLSCKASGYTFTSYWMHWVKQRPGQGLEWIGMIHPKSGSVDYNEKFTNKATLTGDKSSGTAYMQLSSLTSEDSAVYYCARGGYGSPFDYWGQGTTVTVSSGGGGSGGGGSGGGGSENVLTQSPAIMSASPGEKVTMTCSASSSVSYMYWYQQKPGSSPRLLIYRTSNLASGVPARFSGSGSGTSYSLTISSMEAEDAATYYCQQWSSNPPTFGGGTKLEIK
